Results reported in paper PMC5351981.
Results are given in words; binding and its absence hold for the method and conditions named. Binding seen in cells or lysates may run through a third protein. These calls come from enrichment with a bait or labelling near it, and not all partners need be listed.

By UniProt entry, the sequences of proteins in these tests, tags left out. Where a name states a change or a piece, a line headed by the entry shows the natural chain unless it says otherwise.
UniProt Q08605: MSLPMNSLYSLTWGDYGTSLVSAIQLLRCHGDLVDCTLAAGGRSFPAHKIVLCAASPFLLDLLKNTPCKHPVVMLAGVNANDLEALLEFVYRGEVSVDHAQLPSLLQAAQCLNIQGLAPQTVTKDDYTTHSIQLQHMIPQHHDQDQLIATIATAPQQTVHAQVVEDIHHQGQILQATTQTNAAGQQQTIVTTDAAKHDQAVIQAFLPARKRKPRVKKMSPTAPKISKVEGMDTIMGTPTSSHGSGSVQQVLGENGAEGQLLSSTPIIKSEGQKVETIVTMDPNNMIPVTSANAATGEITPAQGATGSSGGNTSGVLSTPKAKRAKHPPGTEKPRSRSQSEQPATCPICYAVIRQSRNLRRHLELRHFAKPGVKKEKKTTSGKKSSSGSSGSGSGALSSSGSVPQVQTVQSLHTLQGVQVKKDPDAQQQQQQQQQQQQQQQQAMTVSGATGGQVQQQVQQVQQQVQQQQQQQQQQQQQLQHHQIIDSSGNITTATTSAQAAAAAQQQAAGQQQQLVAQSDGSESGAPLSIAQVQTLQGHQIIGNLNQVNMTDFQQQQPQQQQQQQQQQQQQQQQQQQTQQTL

Biological target: GAGA factor (GAF) (Drosophila melanogaster (endogenous in embryos)) (UniProt Q08605)
Assay: affinity purification with mass spectrometry; GAF polyclonal antibody coupled to protein A Sepharose; 10 mg nuclear extract of 0-12 h embryos, HEMG-150, 2 h; washed with HEMG-500 plus 0.1% Nonidet P-40; eluted with 0.1 M glycine pH 2.5; triplicate; mock: protein A Sepharose with no antibody

Row | Binder | binding
1 | Sce/dRing (protein, UniProt Q9VB08 1-435) MTSLDPAPNKTWELSLYELQRKPQEVITDSTEIAVSPRSLHSELMCPICLDMLKKTMTTKECLHRFCSDCIVTALRSGNKECPTCRKKLVSKRSLRADPNFDLLISKIYPSREEYEAIQEKVMAKFNQTQSQQALVNSINEGIKLQSQNRPQRFRTKGGGGGGGGGGNGNGAANVAAPPAPGAPTAVGRNASNQMHVHDTASNDSNSNTNSIDRENRDPGHSGTSAASAITSASNAAPSSSANSGASTSATRMQVDDASNPPSVRSTPSPVPSNSSSSKPKRAMSVLTSERSEESESDSQMDCRTEGDSNIDTEGEGNGELGINDEIELVFKPHPTEMSADNQLIRALKENCVRYIKTTANATVDHLSKYLAMRLTLDLGADLPEACRVLNFCIYVAPQPQQLVILNGNQTLHQVNDKFWKVNKPMEMYYSWKKT | binds weakly
2 | l(1)G0020 (protein, UniProt Q9W3C1 1-1008) MVKKKIDNRIRVMIENGVKLGHRTMFIVIGDKARDQVPILYDILTKSTVKARPTVLWCYKNKDEAISNHGKKRAKKIAVGKVDVNEADLFDSFRVATTIHGRYYSETHAVLGRTYGVCVLQDFEALTPNLLARTVETVEGGGLIILLLKTLQSLKQLYTMSMDVHKRFRTEAHQTVTCRFNERLILSLADCKRCLVVNDDLTVLPLSSKTINVEPVNPAGAGRSPNEASLKELKESLLTVQPAGALVNLCKTYDQANAVAQFIEALVDKQLKPPMSLTAARGRGKSAALGLSIAAAVAFGYVNIYVTSPHPENLITLFEFVLKGFDALEYQEHADYTIIRSTNADYKKAIIRINITRSSRQTIQYIAPSDTHLLNAADLLLIDEAAAIPLPLVKKMIGPYLVFMASTINGYEGTGRSLSLKLISQLQKDNNARPPLKLEESIRYQENDDIEKWLINLLCLDASTVPSISSGCPTPDACELYYVDRDALFSYHKAAEAFLHRLVSIYVSSHYKNTPNDLQMMSDAPAHHLFCLLGPVQRMDALPEILVVIQVALEGQISAQSISDSLGRGKKAAGDLIPWNVAEQYGDRDFPKLCGVRIVRVATHPNYQRMGYGKRAIQLLKDYYARKHTNLEDGPVASKDAGKGIEEVEEEELSLLKEQIRPRSRIPTLLQRLHERVPEHVDYIGTSYGLTTELLKFWKNAGFVPVYLSQKSNELTAEHSCIMLHTPNATPWLGLYYQDFRRRVLKLMGKTFREFETKLCLALLKNKSVDTEGSALKVLDKPMLDVYFLPHDLQRLESYARQQSEFRLIIDLLTDIAQLYFQGRIDGLQLDLVQQGILLALGVQGKTVDALGLELNMPGNQLLAKFFDAMKRCNQCFRSVLEEHIEGGMLREADLSKGEELQPLTLSLDKELDQTAQKLSKQQRKELKRLKAEQLDEFQIKGTEEDWSKALETNGTGGGSGLLSVKSGVKRLDGPIETREDGDLAAPLSKKKKKNNPKQRRSQGKSLI | binds
3 | Adf1 (protein, UniProt P05552 1-262) MHTLTAAIEMDKLDANLEQQFDLNLIEAVKLNPVIYDRSHYNYKHFVRKAQTWKQIAETLGVPEQKCTKRWKSLRDKFAREMKLCQESRWRYFKQMQFLVDSIRQYRESLLGKCANGSQSANQVADPSQQQQAQQQTVVDIFAQPFNGSATTSAQALTHPHEITVTSDAQLATAVGKDQKPYFYEPPLKRERSEEEHSDNMLNTIKIFQNNVSQAVSAEDQSFGMVVTDMLNTLGVRQKAEAKVHIIKYLTDMQLLAQHNKY | binds
4 | Batman (Lolal) (protein, UniProt Q7KRI2 1-127) MMSSDQQFFLKWNDFQTNMVTSFRHLRDEKSFTDVTLACEGQTCKAHKMVLSACSPYFKALLEENPSKHPIIILKDVSYIHLQAILEFMYAGEVNVSQEQLPAFLKTADRLKVKGLAETPSSIKREG | binds
5 | Hcf (protein, UniProt Q9V4C8 1-1500) MEGSDFVDPAFSSGERISASDLNSEHIIQAENHSFANRISMDMDVPDGHQLDSNLTGFRWKRVLNPTGPQPRPRHGHRAINIKELMVVFGGGNEGIVDELHVYNTVTNQWYVPVLKGDVPNGCAAYGFVVEGTRMFVFGGMIEYGKYSNELYELQATKWEWRKMYPESPDSGLSPCPRLGHSFTMVGEKIFLFGGLANESDDPKNNIPKYLNDLYILDTRGVHSHNGKWIVPKTYGDSPPPRESHTGISFATKSNGNLNLLIYGGMSGCRLGDLWLLETDSMTWSKPKTSGEAPLPRSLHSSTMIGNKMYVFGGWVPLVINDSKSTTEREWKCTNTLAVLDLETMTWENVTLDTVEENVPRARAGHCAVGIQSRLYVWSGRDGYRKAWNNQVCCKDLWYLEVSKPLYAVKVALVRASTHALELSWTATTFAAAYVLQIQKIEQPLNTSSKLLSNNIVQQGTPTSAETSGINISANRSGSALGLGVEATSTVLKLEKESLQLSGCQPETNVQPSVNDLLQSMSQPSSPASRADKDPLSSGGGTTFNLSTSVASVHPQISVISSTAAVTGNDTASPSGAINSILQKFRPVVTAVRTSTTTAVSIATSTSDPLSVRVPSTMSANVVLSSSSSTLRIVPSVTASHSLRIASSQASGNNCRSSSAINILKTALPNVAVQSQPTSSTTTSIGGKQYFIQKPLTLAPNVQLQFVKTSGGMTVQTLPKVNFTASKGTPPHGISIANPHLASGITQIQGSTVPGSQIQKPIVSGNVLKLVSPHTMAGGKLIMKNSNILQMGKVTPNVMGGKPAFVITNKQGTPLGNQQIIIVTTGGNVRSVPTSTVMTSAGGSASGTNIVSIVNSTSTTPSPLQALSGQKTLISNQSGVKMLRNISSVQASSSMAFGQKQSGTPIHQKTALYIGGKAVTVMSTNTSMAASGNKVMVLPGTSSNNSPATTTALSARKSFVFNAGGSPRTVTLATKSINAKSIPQSQPVTETNNHSVATIKDTDPMDDIIEQLDGAGDLLKLSESEGQHGSEENENNGENATSSSASALFTGGDTAGPSRAQNPIVMEHPVDIIEDVSGVSSTTDVNETAIVSGDTIESLKMSEKENDDVKSMGEKSILSDDCHQPTTSETEAATILTTIKSAEALVLETAEIRKDHTGCTIGSLKENQDENKKFKQRQESSPSQNIHQFQNVDGSQLEALASAALLQAATSDTTALALKELIERPESETNTRSSNIAEIQQNNVQSTLAVVVPNTSQNENQKWHTVGVFKDLSHTVTSYIDSNCISDSFFDGIDVDNLPDFSKFPRTNLEPGTAYRFRLSAINSCGRGEWGEISSFKTCLPGFPGAPSAIKISKDVKEGAHLTWEPPPAQKTKEIIEYSVYLAVKPTAKDKALSTPQLAFVRVYVGAANQCTVPNASLSNAHVDCSNKPAIIFRIAARNQKGYGPATQVRWLQDPAAAKQHTPTVTPNLKRGPEKSTIGSSNIANTFCSPHKRGRNGLHD | binds
6 | Bre1 (protein, UniProt Q9VRP9 1-1044) MSKRSADDATGSSCLVAAAAAGQPPIKKVHFEPHLIGPVSTLEEMDIKVLEFQNKKLAQRIEQRMRTEAELRHRIEQLEKRQTQDDAVLNVVNRYWNQLNEDIRVLLQRFDAETADELENRNENEVTTSFLAQLSTWDKEELDEKLANRVQVSKRAVAKIVQVIDRLMQRNEKITHVLKGDSLASAGSGSGAGAGGEEEQQQASGDAETTTSSAGVHALEETLKQTHIEIMSENHKLQNLNTSLHEKFHTMSLKMKEYQDAHTAKETENAELKNQIDELQYDLEKIHCRNDKLENHLAEAIEKLKAYHQIYGDPNKSTNSAKTPTTTGSGGATTSVNSQLLEELQKELEEYRELANNRLQELDKLHATHRETLKEVEKLKMDIRQLPESVIVETTEYKCLQSQFSVLYNESMQIKTMLDETRNQLQTSKNQHLRQIEVMESEELIAQKKVRSEMIQMEDVLALIRKEYETLRIEFEQNMAANEQTAPINREMRHLITSLQNHNGQLKGEVQRYKRKYKDTSTDNLKLRQELADALATLEGNKLQAATGAAGEEIKQENSTGVKEENSNNVSASGQTNQTNSGNDTNVAIKEENHISAEDEADDEASGKDVKDGIKQEKLSSGDAAAAEKKDSPGPGNSTSSATNSVPVKNEKDSKDGVKGKDVKAVESETVRDLKAQLKKALNDQKEMKLLLDMYKGVSKDQRDKVQLMATEKKLRSEIEELRQQLKKLQESKREERKKLADEEALRKIKQLEEQKYELQKQMANHKPTDNSWGSGAPGTANYTRPFVGSHEEEALLNEMEVTGQAFEDMQEQNSRLIQQLREKDDANFKLMSERIKANQLHKLLREEKTVLEDQMATATTQIEAMHIVLRKLEEKERSLQATVASIEKELMLRQQAMEMHKRKAIESAQSAADLKLHLEKYHAQMKEAQQVVAEKTSSLEAEAYKTKRLQEELAQFKRKAERMKKMEMSGTTIDEVMIEEIREYKETLTCPSCKVKRKDAVLSKCFHVFCYDCLRTRYETRQRKCPKCNCAFGANDYHRLYLQ | binds
7 | E(y)2/ENY2 (protein, UniProt Q9VYX1 1-101) MSTSGAVDQYTVLTGDRSKIKDLLCSRLTECGWRDEVRLMCRNILMEKGTNNSFTVEQLIAEVTPKARTLVPDAVKKELLMKIRTILTEIEEEPDEPEDES | binds
8 | Su(Hw) (protein, UniProt P08970 1-941) MSASKEGKEKKGKLLGVENISPPKDKRPATRMKLLNDVGAGEDSEASTTTTTSRTPSNKQEKRGSVAGSRIKILNEEILGTPKTEKRGATKSTAPAASTVKILNEKKTPSATVTAVETTKIKTSPSKRKKMEHYVLQAVKSENTKADTTVTVVTEEDDTIDFILADDEEVVPGRIENNNGQEIVVTEDDEDLGEDGDEDGEDSSGKGNSSQTKIKEIVEHVCGKCYKTFRRVQSLKKHLEFCRYDSGYHLRKADMLKNLEKIEKDAVVMEKKDICFCCSESYDTFHLGHINCPDCPKSFKTQTSYERHIFITHSEFSDFPCSICNANLRSEALLALHEEQHKSRGKPYACKICGKDFTRSYHLKRHQKYSSCSSNETDTMSCKVCDRVFYRLDNLRSHLKQHLGTQVVKKPEYMCHTCKNCFYSLSTLNIHIRTHTGEKPFDCDLCDKKFSALVALKKHRRYHTGEKPYSCTVCNQAFAVKEVLNRHMKRHTGERPHKCDECGKSFIQATQLRTHSKTHIRPFPCEQCDEKFKTEKQLERHVKTHSRTKRPVFSCAECKRNFRTPALLKEHMDEGKHSPKQQRSSMRSAVKIMERTDCAICDKNFDSSDTLRRHIRTVHECDPDDIFGVEPHPSKRAKKDIESEEVVPVALNTSAGSLISSQTDGNGVVVREFLVDEGDGAAQTITLENETYTILPLDGAIEGEQLTDEAGVKPEAKKEEAQVSPVVKKEQRKSLAASLAAAIADNLEESCSEDDFSGEILTEEDIKLKENVGKLIDMLVDPPILKKYGWPNAPEETVLCKVIENCGHDLTKGGENYAELDYGSRMREYCKLLFTVVIHNDSIKSLLNNFPIDDVIEYVLGDEDQDEGGLDKDNESHSGDEEAVSVTGETKTNEIREKPEKKEVSAKSEKKEIVGKAVDKDNSEEVVRENKKKPVGEQEKA | binds
